Source: patent US6391871B1 (priority 1996, dated 2002)

Tested on: vacuolated PC/RS neurons
Experiment: Safener assay: prevention of MK-801-induced vacuole formation in PC/RS neurons
Conditions: Rattus norvegicus, Neuron, sc, 4 h
Method: For each test agent, at least 5 dosages of the candidate safener agent were tested, and at least 4 rats were used in each dosage group.
The rats were sacrificed four hours after treatment, for histopathological evaluation. The number of vacuolated PC/RS neurons were counted on each side of the brain, at a rostrocaudal level immediately posterior to where the corpus callosum ceases decussating across the midline (approximately 5.6 mm caudal to bregma).
The result was subtracted from one and multiplied by 100, to calculate a percentage.
The confidence limits, in the right column, were the safener dosages that reduced vacuoles by 25% and 75%.

CCN(CC)C(=O)N[C@H]1C=C2c3cccc4[nH]cc(c34)C[C@H]2N(C)C1 [Lisuride]
ED50: 0.17 mg/kg
